Source: article PMC10620119
These are yes or no findings as the source states them, for the method shown. In cells and extracts the contact can be indirect. Here binding means that the protein was enriched with, or labelled near, the bait; the list need not be complete. For some of these results: A no says only that the protein was not detected with the bait.

Protein sequences, listed by entry. Tags and fused reporters are not part of them.
UniProt Q8CBW3: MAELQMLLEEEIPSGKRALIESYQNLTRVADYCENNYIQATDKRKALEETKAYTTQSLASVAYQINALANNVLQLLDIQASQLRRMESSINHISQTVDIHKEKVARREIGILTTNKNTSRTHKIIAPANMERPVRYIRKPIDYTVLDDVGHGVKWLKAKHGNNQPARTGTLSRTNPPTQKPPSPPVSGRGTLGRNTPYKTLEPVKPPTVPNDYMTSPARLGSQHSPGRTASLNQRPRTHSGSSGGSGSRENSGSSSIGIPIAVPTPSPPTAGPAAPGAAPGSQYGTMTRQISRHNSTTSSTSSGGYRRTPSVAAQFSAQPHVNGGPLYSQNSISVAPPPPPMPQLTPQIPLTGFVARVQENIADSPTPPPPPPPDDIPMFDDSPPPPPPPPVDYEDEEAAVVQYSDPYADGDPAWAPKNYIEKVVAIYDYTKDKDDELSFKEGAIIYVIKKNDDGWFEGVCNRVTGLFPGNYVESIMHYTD
UniProt O08863: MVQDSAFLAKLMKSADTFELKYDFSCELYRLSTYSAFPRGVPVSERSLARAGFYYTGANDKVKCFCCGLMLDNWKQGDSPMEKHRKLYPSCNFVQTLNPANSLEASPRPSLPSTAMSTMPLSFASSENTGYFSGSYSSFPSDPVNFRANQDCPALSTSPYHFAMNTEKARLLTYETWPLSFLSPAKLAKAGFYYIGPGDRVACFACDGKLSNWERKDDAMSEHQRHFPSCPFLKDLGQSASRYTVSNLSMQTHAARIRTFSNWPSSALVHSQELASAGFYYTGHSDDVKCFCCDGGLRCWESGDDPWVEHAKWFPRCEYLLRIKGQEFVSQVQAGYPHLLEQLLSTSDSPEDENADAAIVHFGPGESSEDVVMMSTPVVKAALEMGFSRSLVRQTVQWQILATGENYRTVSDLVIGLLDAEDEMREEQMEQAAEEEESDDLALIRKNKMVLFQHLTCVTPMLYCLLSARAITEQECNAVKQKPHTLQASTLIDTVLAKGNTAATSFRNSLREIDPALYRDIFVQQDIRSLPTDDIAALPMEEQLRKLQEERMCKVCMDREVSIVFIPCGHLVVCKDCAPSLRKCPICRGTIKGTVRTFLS
UniProt Q62210: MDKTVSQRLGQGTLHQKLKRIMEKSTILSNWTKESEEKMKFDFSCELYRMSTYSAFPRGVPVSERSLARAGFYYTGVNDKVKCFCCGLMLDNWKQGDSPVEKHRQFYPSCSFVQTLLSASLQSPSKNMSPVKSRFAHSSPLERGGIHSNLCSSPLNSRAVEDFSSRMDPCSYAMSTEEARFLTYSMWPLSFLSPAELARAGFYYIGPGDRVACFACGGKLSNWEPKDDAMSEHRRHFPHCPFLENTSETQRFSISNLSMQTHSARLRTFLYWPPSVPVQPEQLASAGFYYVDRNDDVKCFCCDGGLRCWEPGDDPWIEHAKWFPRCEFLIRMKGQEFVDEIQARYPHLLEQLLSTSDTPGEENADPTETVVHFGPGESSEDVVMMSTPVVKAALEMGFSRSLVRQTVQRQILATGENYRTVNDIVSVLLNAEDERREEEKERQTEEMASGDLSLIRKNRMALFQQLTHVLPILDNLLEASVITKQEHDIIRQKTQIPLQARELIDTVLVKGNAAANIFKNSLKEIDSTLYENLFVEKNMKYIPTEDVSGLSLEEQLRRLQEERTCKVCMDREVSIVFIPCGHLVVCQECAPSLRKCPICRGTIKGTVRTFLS

B1: ELKS/RAB6-interacting/CAST family member 1 (ERC1) (protein, UniProt Q99MI1 1-1120)
chain: MYGSARSVGKVEPSSQSPGRSPRLPRSPRLGHRRTNSTGGSSGNSVGGGSGKTLSMENIQSLNAAYATSGPMYLSDHENVGAETPKSTMTLGRSGGRLPYGVRMTAMGSSPNIASSGVASDTIAFGEHHLPPVSMASTVPHSLRQARDNTIMDLQTQLKEVLRENDLLRKDVEVKESKLSSSMNSIKTFWSPELKKERALRKDEASKITIWKEQYRVVQEENQHMQMTIQALQDELRIQRDLNQLFQQDSSSRTGEPCVAELTEENFQRLHAEHERQAKELFLLRKTLEEMELRIETQKQTLNARDESIKKLLEMLQSKGLSAKATEEDHERTRRLAEAEMHVHHLESLLEQKEKENNMLREEMHRRFENAPDSAKTKALQTVIEMKDSKISSMERGLRDLEEEIQMLKSNGALSSEEREEEMKQMEVYRSHSKFMKNKVEQLKEELSSKDAQGEELKKRAAGLQSEIGQVKQELSRKDTELLALQTKLETLTNQFSDSKQHIEVLKESLTAKEQRAAILQTEVDALRLRLEEKETMLNKKTKQIQDMAEEKGTQAGEIHDLKDMLDVKERKVNVLQKKIENLQEQLRDKEKQMSSLKERVKSLQADTTNTDTALTTLEEALADKERTIERLKEQRDRDEREKQEEIDTYKKDLKDLREKVSLLQGDLSEKEASLLDIKEHASSLASSGLKKDSRLKTLEIALEQKKEECLKMESQLKKAHEATLEARASPEMSDRIQQLEREISRYKDESSKAQTEVDRLLEILKEVENEKNDKDKKIAELESLTSRQVKDQNKKVANLKHKEQVEKKKSAQMLEEARRREDSLSDSSQQLQDSLRKKDDRIEELEEALRESVQITAEREMVLAQEESARTNAEKQVEELLMAMEKVKQELESMKAKLSSTQQSLAEKETHLTNLRAERRKHLEEVLEMKQEALLAAISEKDANIALLELSSSKKKTQEEVAALKREKDRLVQQLKQQTQNRMKLMADNYEDDHFRSSRSNQTNHKPSPDQIIQPLLELDQNRSKLKLYIGHLTALCHDRDPLILRGLTPPASYNADGEQAAWENELQQMTQEQLQNELEKVEGDNAELQEFANTILQQIADHCPDILEQVVNALEESS
B2: TRAF3 interacting protein 2 (TRAF3IP2) (protein, UniProt Q8N7N6 1-555)
chain: MNRSIPVEVDESEPFPSQLLKPIPEYSPEEELEPPAPNTRNMAPSSLSVLQCPPLKLANHQPVSQQVTCLRAKVLEEGEASFFRRHPELGKDISSCSSGASEPESELGALPPEHRFTLTEKRNRWLGSQLSAASPDTGHESDKSDPSLPNALADSFSGGQEMMPRPRPRPGPHRHRAAPDVPTIDTGYDSQPQDVLGIRQLERPLPLTSSCYLQDLPGPLRSRELPPQFELERYPMNAQLLPPHPSPQAPWNCQYYCPGGPYHHQVPHGHGYPPAAAYQQVLQPALPGQVLPGARARGPRPVQKVILNDSSPQDQEERPAQRDFSFPRLPRDQLYRPPSNGVEAPEESLDLPAELRPHGPQAPSLAAVPRPPSNPLARGTLRTSNLPEELRKVFITYSMDTAMEVVKFVNFLLVNGFQTAIDIFEDRIRGIDIIKWMERYLRDKTVMIIVAISPKYKQDVEGAESQLDEDEHGLHTKYIHRMMQIEFISQGSMNFRFIPVLFPNAKKEHVPTWLQNTHVYSWPKNKKNILLRLLREEEYVAPPRGPLPTLQVVPL
B3: serine/threonine-protein phosphatase 6 catalytic subunit (PPP6C) (protein, UniProt Q9CQR6 1-305)
chain: MAPLDLDKYVEIARQCKYLPENDLKRLCDYVCDLLLEESNVQPVSTPVTVCGDIHGQFYDLCELFRTGGQVPDTNYIFMGDFVDRGYYSLETFTYLLALKAKWPDRITLLRGNHESRQITQVYGFYDECQTKYGNANAWRYCTKVFDMLTVAALIDEQILCVHGGLSPDIKTLDQIRTIERNQEIPHKGAFCDLVWSDPEDVDTWAISPRGAGWLFGAKVTNEFVHINNLKLICRAHQLVHEGYKFMFDEKLVTVWSAPNYCYRCGNIASIMVFKDVNTREPKLFRAVPDSERVIPPRTTTPYFL
B4: tumor necrosis factor receptor type 1-associated DEATH domain protein (TRADD) (protein, UniProt Q3U0V2 1-310)
chain: MAAGQNGHEEWVGSAYLFLESAVDKVILSEAYTDPKKKVAIYKALQTALSESGDSSDVLQILKIHCSDPQLIVQLRFCGRVLCGRFLQAYREGALRTALQRCMAPALAQEALRLQLELRAGAEQLDSWLTDEERCLNYILAQKPDRLRDEELAELEDELCKLTCDCTGQGGAIQVASAGSKFPVSSPTEEKPLPAACQTFLFHGQLVVNRPLTLQDQQTFARSVGLKWRRVGRSLQRNCRALRDPALDSLAYEYERDGLYEQAFQLLRRFMQAEGRRATLQRLVEALEENELTSLAEDLLGQAEPDGGLA

Tests used:
[1] = target: TurboID-13xGGGGS linker-ABI1 (TurboABI1) (mouse) (UniProt Q8CBW3); assay: proximity labelling; TurboID-ABI1 (TurboABI1 #1) stably expressed in NIH/3T3; 50 uM biotin for 3 h at 37 C; RIPA lysis; magnetic streptavidin beads overnight at 4 C; on-bead tryptic digestion, label-free LC-MS/MS; compared with TurboControl #1 and WT; hits: PA ratio >= 1.5 and PSM ratio >= 1.5 (FDR <= 0.05), minimum average 1 PSM per injection
[2] = target: TurboID-13xGGGGS linker-ABI1 (TurboABI1) (mouse) (UniProt Q8CBW3); assay: as above; remark: listed apart in the source
[3] = target: TurboID-13xGGGGS linker-ABI1 (TurboABI1) (mouse) (UniProt Q8CBW3); assay: proximity labelling; small-scale biotinylation: 1e6 cells per 10-cm dish, 500 uM biotin for 10 min; western blot of whole cell and streptavidin-enriched lysates of TurboControl and TurboABI1 cell lines

| Molecule | binding [1] | binding [2] | binding [3] |
| --- | --- | --- | --- |
| cellular inhibitor of apoptosis protein 2 (cIAP2) (from UniProt O08863 1-600) | no binding |  |  |
| cellular inhibitor of apoptosis protein 1 (cIAP1) (from UniProt Q62210 1-612) | no binding |  |  |
| B1 |  | binds | binds |
| B2 |  | binds |  |
| B3 |  | binds |  |
| B4 |  | no binding |  |
